Experimental data from the supplement of paper PMC3047530.
± gives the standard deviation of the averaged measurements. The list shows a part of the results. Repeats are few or missing, and single values can be far off.

System: Geomyces destructans
Experiment: growth inhibition relative to DMSO control; higher = stronger growth inhibition
Settings: 10 µM; 15 °C; incubation time 10 days

Row | Structure (SMILES) | growth inhibition
1 | NCC(=O)CCC(=O)O | -17.7%
2 | COc1cc2c(cc1OC)C1C(=O)c3c(cc4c(c3O)C=CC(C)(C)O4)OC1CO2 (stereo not drawn) [beta-TOXICAROL] | -10.3%
3 | COc1cc2c(cc1OC)[C@@H]1Cc3ccc(OC)c(OC)c3CN1CC2 | -5.09%
4 | NCCC(=O)c1ccccc1N | 1.23%
5 | O=C(CCCN1CCC(O)(c2ccc(Cl)cc2)CC1)c1ccc(F)cc1 | -1.14%
6 | O=C(O)c1cc(O)c2c(c1)C(=O)c1cc(O)cc(O)c1C2=O | -0.323%
7 | Cc1ccc(C)c(OCCCC(C)(C)C(=O)O)c1 | 11.8%
8 | COC(=O)c1c(C)c2c(c(C)c1O)OC(=O)c1c(C)c(Cl)c(O)c(Cl)c1O2 | 0.617%
9 | Nc1nc(O)c2ncn([C@H]3C[C@H](O)[C@@H](CO)O3)c2n1 | -6.78%
10 | CC1(C)[C@@H](O)CC[C@]2(C)[C@H]3C(=O)C=C4[C@@H]5C[C@@](C)(C(=O)O)CC[C@]5(C)CC[C@@]4(C)[C@]3(C)CC[C@@H]12 | 1.91%
11 | NCCS | -10.2%
12 | COCCOC(=O)C1=C(C)NC(C)=C(C(=O)OC(C)C)C1c1cccc([N+](=O)[O-])c1 (stereo not given) | -6.61%
13 | CN1C(C(=O)Nc2ccccn2)=C(O)c2ccccc2S1(=O)=O | -7.36%
14 | COc1c(C(=O)O)ccc2c1CCC(C)(C)O2 [DIHYDRO-beta-TUBAIC ACID] | 8.58%
15 | Cc1c(NC(C)C)c(=O)n(-c2ccccc2)n1C | -7.53%
16 | O=c1cc(-c2ccc(O)cc2)oc2cc(O[C@@H]3O[C@H](CO)[C@@H](O)[C@H](O)[C@H]3O)cc(O)c12 | -1.47%
17 | COC(=O)C1OC(=O)C2OC23C1(C)CCC1C2(C)C(OC(C)=O)CC(OC(C)=O)C(C)(C)C2CC(=O)C13C (stereo not given) | -10.8%
18 | COc1ccc(-c2c(O)c3cc4c(c(CC=C(C)C)c3oc2=O)OC(C)(C)CC4)cc1 | -10.2%
19 | COc1ccc([C@@H]2Sc3ccccc3N(CCN(C)C)C(=O)[C@@H]2OC(C)=O)cc1 | -21.2%
20 | Cc1cn([C@H]2C[C@H](N=[N+]=[N-])[C@@H](CO)O2)c(=O)[nH]c1=O | -3.5%
21 | CC(C[N+](C)(C)C)OC(N)=O (stereo not given) | -25.8%
22 | CC(=O)O[C@H]1C[C@@H](O)C(C)(C)[C@@H]2C[C@@H](OC(C)=O)[C@]3(C)[C@H](CC[C@@]4(C)[C@@H](c5ccoc5)OC(=O)[C@H]5O[C@@]534)[C@@]12C | -6.49%
23 | CC(C)CCC[C@@H](C)[C@H]1CC[C@H]2[C@@H]3CC[C@H]4CC(=O)CC[C@]4(C)[C@H]3CC[C@]12C | -1.89 ± 3.9%

Row | Structure (SMILES) | growth inhibition
24 | C=C(C)[C@H]1COc2cc3oc(=O)ccc3cc2O1 | -18.7%
25 | CC(=O)O[C@@H]1CC[C@@]2(C)C(C[C@@H](OC(C)=O)[C@@]3(C)C4=CC(=O)O[C@@H](c5ccoc5)[C@]4(C)CCC23)C1(C)C (stereo partly drawn) [3alpha-ACETOXYDIHYDRODEOXYGEDUNIN] | -10.4%
26 | Cc1cccc(Nc2ccncc2S(=O)(=O)NC(=O)NC(C)C)c1 | -15.1%
27 | COc1cc(NS(=O)(=O)c2ccc(N)cc2)nc(OC)n1 | -0.78%
28 | O=C1N=C(O)NC1(c1ccccc1)c1ccccc1 | -11.2%
29 | CC(=O)OCC(=O)[C@@]1(O)[C@H](OC(C)=O)C[C@H]2[C@@H]3CCC4=CC(=O)C=C[C@]4(C)[C@@]3(F)[C@@H](O)C[C@@]21C | -24.2%
30 | C/C=C(/C)C(=O)O[C@H]1Cc2c(ccc3ccc(=O)oc23)OC1(C)C | 3.12%
31 | NC(=O)N1c2ccccc2CC(=O)c2ccccc21 | -42.5%
32 | Cc1nnc(SCC2=C(C(=O)O)N3C(=O)[C@@H](NC(=O)Cn4cnnn4)[C@H]3SC2)s1 | 11.4%
33 | CN(C)c1nc(N)c(C(=O)N=C(N)N)nc1Cl | -6.64%
34 | O=c1[nH]c(=O)n([C@H]2C[C@H](O)[C@@H](CO)O2)cc1C(F)(F)F | -9.49%
35 | COc1ccc2c3c1O[C@H]1C[C@@H](O)C=C[C@@]31CCN(C)C2 | -31.6%
36 | CCCC(=O)O[C@]1(C(=O)CO)CC[C@H]2[C@@H]3CCC4=CC(=O)CC[C@]4(C)[C@H]3[C@@H](O)C[C@@]21C | -10.4%
37 | CC1(C)S[C@@H]2[C@H](NC(=O)COc3ccccc3)C(=O)N2[C@H]1C(=O)O | -7.53%
38 | C[C@]12CCC3c4ccc(OS(=O)(=O)O)cc4CCC3C1CC[C@H]2O (stereo not given in full) | -5.51%
39 | CC(C)NC(=N)NC(=N)Nc1ccc(Cl)cc1 | -34.1%
40 | O=C1OC(=O)[C@H]2[C@@H]1[C@@H]1CC[C@H]2O1 | -26%
41 | NCCCCN | -7.99%
42 | CC1=CC2C(CC1=O)C(C)=CCC2C(C)C (stereo not given) | -6.82%
43 | CC(C)C1COc2cc3oc(=O)ccc3cc2O1 (stereo not given) | -2.34%
44 | CC(C)[C@@H]1CC[C@@H](C)CC1=O | -4.4%
45 | CC(=O)/C=C\[C@@H]1[C@@]2(C)CCCC(C)(C)C2CC[C@@]1(C)O (stereo not given in full) | -3.64%
46 | CCCCCCCCNC(C)C(O)c1ccc(SC(C)C)cc1 (stereo not given) | -8.3%

An excerpt of these results, tab-delimited:
Row	Structure (SMILES)	growth inhibition
27	COc1cc(NS(=O)(=O)c2ccc(N)cc2)nc(OC)n1	-0.78%
29	CC(=O)OCC(=O)[C@@]1(O)[C@H](OC(C)=O)C[C@H]2[C@@H]3CCC4=CC(=O)C=C[C@]4(C)[C@@]3(F)[C@@H](O)C[C@@]21C	-24.2%
37	CC1(C)S[C@@H]2[C@H](NC(=O)COc3ccccc3)C(=O)N2[C@H]1C(=O)O	-7.53%
38	C[C@]12CCC3c4ccc(OS(=O)(=O)O)cc4CCC3C1CC[C@H]2O (stereo not given in full)	-5.51%
42	CC1=CC2C(CC1=O)C(C)=CCC2C(C)C (stereo not given)	-6.82%

Going on with the list.

Row | Structure (SMILES) | growth inhibition
47 | C[C@H]1O[C@@H](O[C@H]2[C@@H](O)C[C@H](O[C@H]3[C@@H](O)C[C@H](O[C@H]4CC[C@@]5(C)[C@H](CC[C@@H]6[C@@H]5CC[C@]5(C)[C@@H](C7=CC(=O)OC7)CC[C@]65O)C4)O[C@@H]3C)O[C@@H]2C)C[C@H](O)[C@@H]1O | -7.18%
48 | O=C(O)c1cc([N+](=O)[O-])ccc1NCCCc1ccccc1 | -1.58%
49 | S=c1[nH]cnc2nc[nH]c12 | 3.6%
50 | COc1cc2c(cc1OC)[C@@H]1C(=O)c3ccc4c(c3O[C@@H]1CO2)C=CC(C)(C)O4 | -2.83%
51 | CC(=O)O[C@]1(C(C)=O)CC[C@H]2[C@@H]3C=C(C)C4=CC(=O)CC[C@]4(C)[C@H]3CC[C@@]21C | -37%
52 | Cc1c(C)c2c(c(C)c1O)CCC(C)(CCCC(C)CCCC(C)CCCC(C)C)O2 (stereo not drawn) [alpha-TOCHOPHEROL] | -30%
53 | O=C(O)/C=C(\CC(=O)O)C(=O)O | -5.57%
54 | O=c1oc2ccccc2cc1O | 4.64%
55 | C=C1CCC(=O)C(C)CCC2C1CC2(C)C (stereo not given) | -6.67%
56 | OCC(O)C(O)C(O)CO (stereo not given) | -6.51%
57 | CC(=O)OC1CC(OC(C)=O)C2(C)C(CC(OC(C)=O)C3(C)C2CCC2(C)C(c4ccoc4)OC(=O)C4OC423)C1(C)C (stereo not given) | 0.256%
58 | COc1cc(O)c(C(=O)c2ccccc2)cc1O | 13%
59 | CC1=C(C(=O)O)N2C(=O)[C@@H](NC(=O)[C@H](N)c3ccccc3)[C@H]2SC1 | -5.04%
60 | CCC(C)C(=O)OC1[C@@H]2CC3=C4CC(=O)O[C@@H](c5ccoc5)[C@]4(C)CCC3[C@@](C)(C2=O)[C@@H](CC(=O)OC)C1(C)C (stereo not given in full) | -1.59%
61 | Cc1cc(O)cc(O)c1C(=O)O | 2.91%
62 | CC(C)(C)NCC(O)COc1cccc2c1CC(O)C(O)C2 (stereo not given) | -7.83%
63 | Oc1ccc2c(c1)O[C@H](c1ccc(O)c(O)c1)[C@@H](O)C2 | 5.43%
64 | COC(=O)C[C@H]1C(C)(C)C(=O)[C@@H]2CC3C4=CC(=O)O[C@@H](c5ccoc5)[C@]4(C)CC[C@@H]3[C@@]1(C)C2=O (stereo not given in full) | -8.7%
65 | CC(C)=CC1C(C(=O)O)C1(C)C (stereo not given) | 3.4%
66 | COc1ccc2cc3[n+](cc2c1OC)CCc1cc2c(cc1-3)OCO2 | -13.8%
67 | COc1ccc2c(c1)CC[C@@H]1[C@@H]2CC[C@]2(C)[C@@H](O)[C@H](O)C[C@@H]12 | -3.82%
68 | COc1ccc2c(c1)OC[C@@H](Cc1ccc(OC)c(OC)c1)[C@@H]2O | -25.3%
69 | Cc1c2oc3c(C)ccc(C(=O)N[C@@H]4C(=O)N[C@H](C(C)C)C(=O)N5CCC[C@H]5C(=O)N(C)CC(=O)N(C)[C@@H](C(C)C)C(=O)O[C@@H]4C)c3nc-2c(C(=O)N[C@@H]2C(=O)N[C@H](C(C)C)C(=O)N3CCC[C@H]3C(=O)N(C)CC(=O)N(C)[C@@H](C(C)C)C(=O)O[C@@H]2C)c(N)c1=O | -27.8%

Row | Structure (SMILES) | growth inhibition
70 | COc1ccc2c(c1)c(CC(=O)OCC(=O)O)c(C)n2C(=O)c1ccc(Cl)cc1 | -17.5%
71 | O=C1C(O)=C(O)C(=O)C(O)=C1O | -9.95%
72 | CC(=O)/N=c1/sc(S(N)(=O)=O)nn1C | -2.37%
73 | CC1=CC(=O)c2ccccc2C1=O | -23.1%
74 | C#C[C@]1(OC(C)=O)CC[C@H]2[C@@H]3CCC4=CC(=O)CC[C@@H]4[C@H]3CC[C@@]21C | -12.6%
75 | COc1ccccc1-c1cc(=O)c2cccc(OC)c2o1 | 17.6%
76 | CCCCC1C(=O)N(c2ccccc2)N(c2ccccc2)C1=O | -9.69%
77 | O=C(O)/C=C/C=C/c1ccccc1 | 64.3%
78 | CCCCC[C@@H](O)[C@H]1C(=O)O[C@H](C)[C@@H](O)/C=C/C=C/C=C/C=C/C=C(\C)[C@@H](O)C[C@H](O)C[C@H](O)C[C@H](O)C[C@H](O)C[C@H](O)C[C@@H]1O | -31.6%
79 | OC[C@H]1O[C@@H](O[C@@H]2OC=C[C@H]3[C@H](O)[C@@H]4O[C@]4(CO)[C@@H]23)[C@H](O)[C@@H](O)[C@@H]1O | -2.83%
80 | O=C(CCCCC(=O)Nc1c(I)cc(I)c(C(=O)O)c1I)Nc1c(I)cc(I)c(C(=O)O)c1I | -16.9%
81 | CCC(=O)c1ccc2c(c1)N(CC(C)N(C)C)c1ccccc1S2 (stereo not given) | -27.6%
82 | Cc1ccc(C(=O)C(C)CN2CCCCC2)cc1 (stereo not given) | -6.06%
83 | COc1cc(C(C)=O)cc(OC)c1O | -8.81%
84 | CC(C)=CCC/C(C)=C\CO | -33.8%
85 | CC(Cc1ccc(O)c(O)c1)C(C)Cc1ccc(O)c(O)c1 (stereo not given) | 0.774%
86 | C#CC1(O)CC[C@H]2[C@@H]3CCC4=CC(=O)CC[C@@H]4[C@H]3CC[C@@]21CC (mixture of isomers) | -16.4%
87 | CC(=O)OCC(=O)[C@@]12OC3(CCCC3)O[C@@H]1C[C@H]1[C@@H]3CCC4=CC(=O)C=C[C@]4(C)[C@@]3(F)[C@@H](O)C[C@@]12C | -8.36%
88 | C[C@@H]1O[C@@H](O[C@H]2[C@H](Oc3cc(O)c4c(c3)O[C@H](c3ccc(O)cc3)CC4=O)O[C@H](CO)[C@@H](O)[C@@H]2O)[C@H](O)[C@H](O)[C@H]1O | -23.1%
89 | COc1cc2c(cc1OC)Cc1cc(OC)c(OC)cc1Cc1cc(OC)c(OC)cc1C2 | -3.14%
90 | COc1c(O)cc(O)cc1O | -7.85%
